Reference: PubChem BioAssay AID686943 (Drosophila RNAi Screening Center, 2013)
Test: 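Fly genes whose loss alters ERK activation after insulin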 (primary screen). Cell system: Drosophila S2R+ haemocyte-like cells expressing YFP-tagged ERK (Rolled). Reagents: long dsRNA against Drosophila genes. Challenge: insulin stimulation versus unstimulated cells; dose and duration not given. Measured: 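Antibody staining for doubly phosphorylated ERK divided by ERK-YFP signal, as plate z-scores, in insulin-treated and untreated cells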. Direction: replicate 1, z-score of dpERK with insulin and replicate 2, z-score of dpERK with insulin: higher = more active ERK per ERK-YFP after insulin.
The screen tested about 23,000 reagents; shown is a random part of those with a known target gene and a result. 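Extra replicates exist only for a retested subset of genes; insulin dose and duration not given; both raised and lowered dpERK matter.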 Names joined by + are all predicted targets of the reagent. Not all columns of the deposit are shown. No sequences are given here. Not given: the amount of reagent, the time to read-out.

For CG17298 (GeneID 42529) [DRSC15221], the values are replicate 1, z-score of dpERK with insulin 1.15; replicate 2, z-score of dpERK with insulin -0.28.
After knock-down of unk (GeneID 42738) [DRSC17093], the record shows replicate 1, z-score of dpERK with insulin -0.25; replicate 2, z-score of dpERK with insulin -0.13.
With knock-down of NK7.1 (GeneID 41747) [DRSC16755] the results were replicate 1, z-score of dpERK with insulin -0.58; replicate 2, z-score of dpERK with insulin -0.35.
Depletion of CG34457 (GeneID 5740661) [DRSC06924] gave: replicate 1, z-score of dpERK with insulin 0.56; replicate 2, z-score of dpERK with insulin 0.24.
For nocte (GeneID 31976) [DRSC18123] the deposit lists replicate 1, z-score of dpERK with insulin -0.94; replicate 2, z-score of dpERK with insulin -0.12.
With knock-down of CG6262 (GeneID 36833) [DRSC06971], the screen gave replicate 1, z-score of dpERK with insulin -1.34; replicate 2, z-score of dpERK with insulin -3.81.
After knock-down of CG34248 (GeneID 5740883) [DRSC09426] the results were replicate 1, z-score of dpERK with insulin -1.22; replicate 2, z-score of dpERK with insulin -0.14.

2 of these entries in another layout.
target	DRSC id	replicate 1, z-score of dpERK with insulin	replicate 2, z-score of dpERK with insulin
CG6262 (GeneID 36833)	DRSC06971	-1.34	-3.81
CG34248 (GeneID 5740883)	DRSC09426	-1.22	-0.14

Continued:
Depletion of ssp2 (GeneID 39540) [DRSC11052] resulted in: replicate 1, z-score of dpERK with insulin -0.12; replicate 2, z-score of dpERK with insulin -0.21.
For primo-2 + primo-1 [DRSC16511] the deposit lists replicate 1, z-score of dpERK with insulin 0.42; replicate 2, z-score of dpERK with insulin 0.26.
CG34267 (GeneID 5740365) [DRSC07881] scored replicate 1, z-score of dpERK with insulin 0.28; replicate 2, z-score of dpERK with insulin 0.01.
Dgkepsilon (GeneID 36408) [DRSC07399] showed replicate 1, z-score of dpERK with insulin 0.17; replicate 2, z-score of dpERK with insulin 0.94.
With knock-down of Zip99C (GeneID 43533) [DRSC16320] the results were replicate 1, z-score of dpERK with insulin 0.21; replicate 2, z-score of dpERK with insulin 0.68.
